Experimental data: patent publication US20020088015A1
These are yes or no findings as the source states them, for the method shown. For part of these data: In cells and extracts the contact can be indirect. Some entries that bind do so weakly or less than the wild type. For part of these data: Where a sequence is shown, tags or fusion partners need not be part of it.

Protein sequences, listed by entry. Tags and fused reporters are not part of them.
UniProt P22561: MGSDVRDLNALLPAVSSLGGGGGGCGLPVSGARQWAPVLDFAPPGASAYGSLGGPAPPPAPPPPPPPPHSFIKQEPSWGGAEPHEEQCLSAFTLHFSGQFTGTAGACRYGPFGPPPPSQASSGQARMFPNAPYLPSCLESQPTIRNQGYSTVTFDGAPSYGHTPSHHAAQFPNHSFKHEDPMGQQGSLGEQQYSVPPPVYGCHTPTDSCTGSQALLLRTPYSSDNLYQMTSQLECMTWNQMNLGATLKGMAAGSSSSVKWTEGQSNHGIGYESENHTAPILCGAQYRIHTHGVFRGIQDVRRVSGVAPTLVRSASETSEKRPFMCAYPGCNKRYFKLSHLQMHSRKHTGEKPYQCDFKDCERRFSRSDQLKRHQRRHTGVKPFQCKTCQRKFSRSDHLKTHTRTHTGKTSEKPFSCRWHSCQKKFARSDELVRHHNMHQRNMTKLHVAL

Experiments:
[1] = molecular target: T1, GST-par-4 (full length rat par-4) (rat) (UniProt Q62627); assay: in vitro binding to par-4; construct not named, data not shown
T1 sequence (looked up): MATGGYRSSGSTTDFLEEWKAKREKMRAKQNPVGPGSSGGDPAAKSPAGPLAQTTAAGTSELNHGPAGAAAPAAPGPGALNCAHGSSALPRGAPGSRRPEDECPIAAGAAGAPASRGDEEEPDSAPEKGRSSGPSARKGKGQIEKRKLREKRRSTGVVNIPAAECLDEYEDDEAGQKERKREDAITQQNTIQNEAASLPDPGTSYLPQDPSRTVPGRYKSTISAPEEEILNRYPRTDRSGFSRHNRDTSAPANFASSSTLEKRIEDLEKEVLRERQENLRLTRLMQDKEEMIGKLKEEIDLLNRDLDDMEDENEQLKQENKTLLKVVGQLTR

[2] = molecular target: T2, endogenous par-4 of M15 mouse mesonephric cells (mouse) (UniProt Q925B0); assay: co-immunoprecipitation from M15 cells
T2 sequence (looked up): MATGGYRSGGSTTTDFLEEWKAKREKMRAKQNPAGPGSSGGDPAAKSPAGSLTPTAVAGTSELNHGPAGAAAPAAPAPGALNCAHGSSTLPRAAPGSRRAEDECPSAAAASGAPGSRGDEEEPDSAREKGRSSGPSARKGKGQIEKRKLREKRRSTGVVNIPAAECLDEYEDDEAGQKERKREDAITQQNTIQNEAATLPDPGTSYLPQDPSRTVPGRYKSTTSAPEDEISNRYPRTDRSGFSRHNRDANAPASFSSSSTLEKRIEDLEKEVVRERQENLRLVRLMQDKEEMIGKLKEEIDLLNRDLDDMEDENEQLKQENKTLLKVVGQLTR

[3] = molecular target: T2, endogenous par-4 of M15 mouse mesonephric cells (mouse); assay: co-immunoprecipitation, M15 cells
[4] = molecular target: T2, endogenous par-4 of M15 mouse mesonephric cells (mouse); assay: co-immunoprecipitation of endogenous proteins from M15 whole cell lysate, anti-WT1 Western blot (FIG. 4E)
[5] = molecular target: T2, endogenous par-4 of M15 mouse mesonephric cells (mouse); assay: co-immunoprecipitation of endogenous proteins from M15 cells (FIG. 4E legend)

Row | Substance | binding [1] | binding [2] | binding [3] | binding [4] | binding [5]
1 | WT1 isoform B (from UniProt P19544 1-446) | binds |  |  |  | 
2 | WT1 isoform C (from UniProt P19544 1-432) | binds |  |  |  | 
3 | endogenous WT1 of M15 mouse mesonephric cells (from UniProt P22561 1-449) |  | binds | binds | binds | binds
